From the supplement of paper PMC3334620
Whole data set: some 33,000 sequences, median “E-score (-0.5 to 0.5)” near -0.0059, cut for the highest 2% near 0.26. The list shows a part of the results.

Target: T1, Cin5 (UniProt P40917)
T1 sequence: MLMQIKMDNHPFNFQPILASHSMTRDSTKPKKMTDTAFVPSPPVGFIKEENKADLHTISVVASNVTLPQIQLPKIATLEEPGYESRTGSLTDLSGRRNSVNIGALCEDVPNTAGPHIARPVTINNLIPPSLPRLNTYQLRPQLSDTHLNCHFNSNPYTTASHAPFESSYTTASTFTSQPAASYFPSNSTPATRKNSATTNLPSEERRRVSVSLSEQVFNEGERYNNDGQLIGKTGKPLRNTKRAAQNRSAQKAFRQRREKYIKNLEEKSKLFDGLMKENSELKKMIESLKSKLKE
Assay: PBM E-score (8-mer binding enrichment) (E-score (-0.5 to 0.5)); higher = stronger / more preferred TF binding
Conditions: protein concentration: 100 nM; construct: GST-full length
Outline: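 Detection of bound protein used fluorescent anti-GST, with scans normalised by masliner. The proteins were GST-tagged yeast transcription factors applied at about 100-200 nM to universal all-10-mer Agilent arrays made double-stranded by primer extension. Each ungapped eight-base word, pooled with its reverse complement, was scored with an E-score from the Universal PBM Analysis Suite.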

Sequence | PBM E-score
ATACACTG | 0.0347
GACATACC | -0.00245
AATCCGTA | 0.0606
GCACCCTA | -0.126
AATCTTTC | 0.162
GTATGAAC | 0.0601
AATCACTG | 0.163
CACGTCTA | -0.0694
GGTTATAC | -0.104
CACTGCTC | -0.056
CGGTGCGC | -0.146
AGGTCTGG | -0.125
AAGACACT | 0.0469
CGCGAGCG | -0.273
ATGAGAAT | 0.121
ATATACCC | 0.132
AGTTCTTA | 0.0779
CTATACAG | -0.0932
CGCACGAG | -0.225
CCCGTCCC | -0.206
CAAGGCTC | -0.314
CGAGCATA | 0.0589
GTAACTGA | -0.0809
AAGTGCCA | -0.0194
GTTGTGGA | 0.0784

Sequence | PBM E-score
CGAAAAAC | -0.0467
GGATGCAA | -0.0522
CATTACAA | 0.229
AAACTGGA | 0.00419
CAGTATGG | -0.0347
TCAACCGA | 0.15
CGATCGTC | 0.0376
CCACAGTC | -0.291
CAGCGTAA | 0.0543
AAACATAT | 0.269
ATAGGGGC | -0.068
CCGTGAGC | -0.208
ACCGTTCC | 0.0916
AGAGACGA | 0.0484
GCAGTGGC | -0.163
CACCAGTA | -0.0321
AAACGTCG | -0.0495
AATTATGT | 0.304
GAACTGGC | -0.125
AGAAGAGC | -0.111
CCGAATCG | -0.0869
AGACCACA | -0.176
ACTACGCG | -0.192
GAGAGCTC | -0.173
AGATCCAG | 0.0424

Sequence | PBM E-score
ATCAGTTC | -0.0161
AATCGCGT | 0.0962
CTCCACTA | -0.0588
AGTTGGAA | -0.017
AATCGGTA | -0.0477
TCACCTAA | 0.142
GAATGTGA | 0.00014
CATTCGCA | 0.0372
CCCACCAA | 0.0564
AAGGCCCT | -0.136
CTCAAAGC | -0.0355
AGTCGCAA | 0.201
ATTAATAG | 0.272
AGCGTACG | -0.0747
AGGGTCAT | -0.123
AACGTCGT | 0.022
GTGTAGTA | 0.181
CTGGCTGA | -0.0743
ACCTTAGC | 0.122
CCGTAAGA | -0.122
CTAGAACA | -0.0309
AACCCCGA | 0.0362
TGAGCGAA | 0.127
GGGCCCCC | -0.478
TGGTCCAA | -0.157

Sequence | PBM E-score
CTAGGGAG | -0.127
GACCTAAA | -0.0385
AGGTAGGA | -0.0926
GAAAGCAA | 0.102
ACACGATA | -0.0616
GTTAGACA | 0.101
AACGCGAA | 0.281
GTCGAGTA | 0.114
ACGCCGCC | -0.184
AGTGAGTA | 0.284
CACTTTTA | -0.0251
CGCCTCAA | -0.11
AATGCGTG | 0.0645
AATCCGGA | 0.234
CGTGTGTA | 0.124
ATAACTAT | 0.176
GGCATGAC | -0.166
TACTAATA | 0.193
CGGTGACG | -0.0802
GCGCGCAC | 0.0199
CTCATCTC | 0.141
CTAGTAGC | -0.105
CCAGCGGC | -0.0378
GCCCAGAA | -0.0597
CCTTAGCG | -0.0913

Sequence | PBM E-score
AAGGTCTA | -0.0945
AATCGCAT | 0.192
ATTGAAGC | -0.117
TATTTGAA | 0.124
CCAACACA | 0.0655
CTTAGACA | -0.202
ACTCATAC | 0.152
CCTGCTCA | -0.177
CCGCTGAA | -0.00931
ACTACGAG | 0.0298
GCCTTGAC | -0.173
AAAAAGGT | 0.0712
AAGTAACA | 0.316
AGTTATTC | 0.101
CTGGGGAC | -0.215
GGGGTACC | -0.32
ATACAGTG | 0.0803
ACTTGGTA | 0.0366
CCATACGC | 0.168
AGTGGTTA | 0.098
AGGGTAGG | -0.0583
AAGCCTTA | -0.0493
GTCGTGCA | -0.0492
AAAGACTG | -0.182
GCGGCGAA | 0.0245

Sequence | PBM E-score
ATTGTAGA | 0.173
TAGTAGAA | 0.0578
GGGCTTAA | -0.0528
CCTCCACC | -0.237
CAACTGGC | -0.0517
GAGATCGA | 0.0654
GCTGACCC | -0.143
ACGATCAA | 0.112
ACGGAGCA | 0.0794
ACTTTACT | 0.184
AAATCGCG | 0.106
GGTAGAGA | 0.0876
CAATACCA | 0.0989
TCTACTAA | 0.171
TGCGCGAA | 0.137
TCCATCGA | 0.071
ATGGGGTA | 0.142
TCGGAAGA | -0.182
ATGGATCC | 0.0853
GATTCGAC | -0.0383
GGGTTGTA | -0.0393
GTACCAAA | 0.139
CGAGGACG | -0.118
AACCTCAA | 0.0121
CATATGCG | 0.0727

3 entries from above, in markdown:

| Sequence | PBM E-score |
| --- | --- |
| TAGTAGAA | 0.0578 |
| TCGGAAGA | -0.182 |
| CGAGGACG | -0.118 |

Further records:

Sequence | PBM E-score
GGCTCTTA | -0.148
CGTATTTC | 0.0605
ATTTACCG | 0.174
GTCCGGTA | -0.0658
ACAATTAA | 0.221
CACCAACC | 0.0602
ACAGTCAG | -0.0425
CACACTGG | -0.0632
CAATCAGA | 0.0452
AGAAGCGA | 0.0278
CGTGTCGC | -0.13
AAACCATA | 0.0572
GAGCCATA | -0.0932
CCACGCGA | 0.0385
AAGAGCAC | -0.0573
AAGATGAG | -0.15
GAGCTAGC | 0.0195
CTCGCTAC | -0.0551
GATAGTGA | 0.176
CCAAGGGG | -0.145
CGTTAACA | 0.0465
CGGGAGTC | -0.154
ATAACAGG | -0.0304
AATAACGT | 0.0882
AACACTTA | 0.154

Sequence | PBM E-score
CATGGATA | 0.0561
GCGAAAAC | -0.161
ATCGCGAA | 0.184
AAGGCGAT | -0.0973
CTGGGCGA | -0.23
ATCGACCG | -0.0503
CGAGTTGC | 0.161
GCCTCACA | 0.0319
CGAAATCA | 0.231
CGAGAAGA | 0.135
AAGTAACT | 0.186
ACTGTTAT | 0.215
ATCTGCAT | 0.123
CCAGCCGG | -0.172
TCAGTGGA | -0.093
ACAAACGA | 0.186
TGCACGAA | 0.104
AGTGATAG | 0.0167
TCAAAAAA | 0.156
ATGAGTGA | 0.168
TCAACCCA | 0.088
AGGTAAGC | 0.321
CTCGGCTC | -0.113
CAGAAGTA | 0.16
CATGGGGC | -0.0962

Sequence | PBM E-score
GCAGCCAA | 0.034
CACTGAGG | -0.0826
GCTCTAAC | -0.0778
CCAGAATC | -0.0294
ATTCTGAC | -0.0416
ATGTGAAG | 0.142
CATCATTC | 0.184
TGTAGTAA | 0.238
AATTGAAA | 0.244
GATAATCA | 0.159
ACACGTCA | 0.0157
ATTCCTCA | -0.0129
CCGAAACA | -0.00673
AGCTGGAA | -0.0454
CTTGACTA | 0.0185
AGTCTTTA | -0.197
AGTATCAT | 0.161
CCAAGACA | 0.0311
CTCGCGAC | 0.107

6 entries picked at random from the list so far, as already listed:
Sequence | PBM E-score
TGTAGTAA | 0.238
AGTATCAT | 0.161
GATAATCA | 0.159
ATTCCTCA | -0.0129
CCAGAATC | -0.0294
GCAGCCAA | 0.034
